Laboratory results taken from the supplement of paper PMC6078165.
± gives the standard deviation of the averaged measurements. The reference is the same well before dosing, and untreated signal decays as well.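 Fibroblast labels name human fibroblasts: mostly primary ones from tissues such as uterus (C12385, HUF), lung (H6013), bone (Hs27A), adrenal (HADF) and skin (WS1), plus mammary HMF and breast cancer-associated Hs343T. The cancer cells are basal-like or mesenchymal-like triple-negative breast cancer lines. The paper calls a changed response a hit when it shifts by more than 3x the replicate standard deviation. The tissue of the other fibroblasts is not given here.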

Test system: HCC1143
Assay: relative JC-1 red fluorescence (viability) vs pre-drug, coculture with fibroblast (fraction); higher = more viable cancer cells
Procedure: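 JC-1 labelled TNBC cells cocultured 1:1 (1,500 cells each) with CellTrace Violet stained primary or stromal fibroblasts in 384-well plates in FluoroBrite medium, treated with one of 42 anticancer drugs at 0.1, 1, 10 or 100 uM. JC-1 red fluorescence (mitochondrial integrity in cancer cells only) was read by plate reader every 8 h for 72 h. Values are normalised to each well's pre-drug value. The stock of one drug was tenfold lower, so its dose labels may be too high.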

CC(=O)O[C@@]12CO[C@@H]1C[C@H](O)[C@@]1(C)C(=O)[C@H](O)C3=C(C)[C@@H](OC(=O)[C@H](O)[C@@H](NC(=O)OC(C)(C)C)c4ccccc4)C[C@@](O)([C@@H](OC(=O)c4ccccc4)[C@H]21)C3(C)C [Docetaxel]
relative JC-1 red fluorescence
Conditions | 8 h | 16 h | 24 h | 32 h | 40 h | 48 h | 56 h | 64 h | 72 h
10 µM, coculture fibroblast: C12385 | 0.852 ± 0.017 | 0.759 ± 0.0014 | 0.668 ± 0.012 | 0.572 ± 0.029 | 0.502 ± 0.008 | 0.4663 ± 0.0027 | 0.4332 ± 0.00034 | 0.406 ± 0.0089 | 0.401 ± 0.0096
10 µM, coculture fibroblast: H6013 | 0.798 ± 0.0088 | 0.732 ± 0.0098 | 0.686 ± 0.013 | 0.656 ± 0.013 | 0.589 ± 0.018 | 0.593 ± 0.024 | 0.576 ± 0.023 | 0.57 ± 0.023 | 0.5176 ± 0.00089
10 µM, coculture fibroblast: H6019 | 0.8559 ± 0.0055 | 0.769 ± 0.011 | 0.707 ± 0.0081 | 0.65 ± 0.013 | 0.624 ± 0.021 | 0.629 ± 0.03 | 0.597 ± 0.021 | 0.575 ± 0.028 | 0.558 ± 0.036
10 µM, coculture fibroblast: H6076 | 0.812 ± 0.021 | 0.816 ± 0.035 | 0.761 ± 0.039 | 0.712 ± 0.016 | 0.649 ± 0.022 | 0.633 ± 0.028 | 0.612 ± 0.033 | 0.589 ± 0.036 | 0.622 ± 0.034
10 µM, coculture fibroblast: H6231 | 0.83 ± 0.029 | 0.825 ± 0.02 | 0.701 ± 0.045 | 0.616 ± 0.058 | 0.546 ± 0.042 | 0.501 ± 0.049 | 0.46 ± 0.041 | 0.423 ± 0.046 | 0.413 ± 0.047
10 µM, coculture fibroblast: HADF | 0.7533 ± 0.0043 | 0.6928 ± 0.0041 | 0.648 ± 0.01 | 0.623 ± 0.021 | 0.527 ± 0.021 | 0.508 ± 0.017 | 0.472 ± 0.011 | 0.454 ± 0.016 | 0.402 ± 0.01
10 µM, coculture fibroblast: HCFa | 0.815 ± 0.022 | 0.74 ± 0.032 | 0.67 ± 0.056 | 0.618 ± 0.055 | 0.524 ± 0.05 | 0.496 ± 0.052 | 0.434 ± 0.046 | 0.417 ± 0.048 | 0.373 ± 0.058
10 µM, coculture fibroblast: HCPF | 0.8457 ± 0.0068 | 0.857 ± 0.031 | 0.814 ± 0.023 | 0.73671 ± 0.00021 | 0.727 ± 0.013 | 0.683 ± 0.027 | 0.645 ± 0.014 | 0.609 ± 0.017 | 0.604 ± 0.013
10 µM, coculture fibroblast: HHSteC | 0.844 ± 0.022 | 0.79 ± 0.052 | 0.746 ± 0.071 | 0.704 ± 0.098 | 0.645 ± 0.13 | 0.634 ± 0.13 | 0.584 ± 0.11 | 0.56 ± 0.11 | 0.496 ± 0.093
10 µM, coculture fibroblast: HMF | 0.8099 ± 0.0079 | 0.792 ± 0.01 | 0.7258 ± 0.0062 | 0.7016 ± 0.0044 | 0.634 ± 0.011 | 0.606 ± 0.025 | 0.557 ± 0.012 | 0.54 ± 0.0098 | 0.533 ± 0.0063
10 µM, coculture fibroblast: HPFa | 0.894 ± 0.022 | 0.787 ± 0.026 | 0.71 ± 0.023 | 0.591 ± 0.009 | 0.531 ± 0.0083 | 0.503 ± 0.016 | 0.463 ± 0.019 | 0.45 ± 0.018 | 0.435 ± 0.021
10 µM, coculture fibroblast: HUF | 0.88 ± 0.026 | 0.768 ± 0.035 | 0.681 ± 0.046 | 0.568 ± 0.029 | 0.489 ± 0.023 | 0.463 ± 0.023 | 0.426 ± 0.024 | 0.4 ± 0.033 | 0.391 ± 0.042
10 µM, coculture fibroblast: Hs5 | 0.8635 ± 0.0025 | 0.8521 ± 0.0017 | 0.8047 ± 0.0019 | 0.7814 ± 0.0058 | 0.6694 ± 0.0048 | 0.633 ± 0.017 | 0.604 ± 0.017 | 0.5813 ± 0.0038 | 0.6118 ± 0.0016
10 µM, coculture fibroblast: Hs27A | 0.6953 ± 0.0015 | 0.629 ± 0.024 | 0.557 ± 0.014 | 0.55 ± 0.0073 | 0.438 ± 0.018 | 0.439 ± 0.017 | 0.409 ± 0.015 | 0.396 ± 0.021 | 0.338 ± 0.013
10 µM, coculture fibroblast: Hs343T | 0.822 ± 0.011 | 0.876 ± 0.036 | 0.798 ± 0.042 | 0.675 ± 0.019 | 0.627 ± 0.027 | 0.576 ± 0.019 | 0.51 ± 0.011 | 0.472 ± 0.0049 | 0.428 ± 0.011
10 µM, coculture fibroblast: WS1 | 0.84 ± 0.009 | 0.732 ± 0.035 | 0.642 ± 0.053 | 0.529 ± 0.087 | 0.465 ± 0.096 | 0.443 ± 0.093 | 0.412 ± 0.091 | 0.396 ± 0.1 | 0.386 ± 0.11
100 µM, coculture fibroblast: C12385 | 0.88 ± 0.018 | 0.811 ± 0.013 | 0.68 ± 0.032 | 0.573 ± 0.046 | 0.482 ± 0.065 | 0.43 ± 0.069 | 0.378 ± 0.072 | 0.342 ± 0.061 | 0.321 ± 0.065
100 µM, coculture fibroblast: H6013 | 0.803 ± 0.03 | 0.728 ± 0.061 | 0.678 ± 0.08 | 0.652 ± 0.11 | 0.612 ± 0.15 | 0.626 ± 0.17 | 0.621 ± 0.17 | 0.618 ± 0.18 | 0.579 ± 0.16
100 µM, coculture fibroblast: H6019 | 0.848 ± 0.029 | 0.757 ± 0.021 | 0.69 ± 0.021 | 0.61 ± 0.02 | 0.556 ± 0.013 | 0.538 ± 0.015 | 0.506 ± 0.0086 | 0.483 ± 0.0077 | 0.452 ± 0.0054
100 µM, coculture fibroblast: H6076 | 0.8065 ± 0.0012 | 0.853 ± 0.017 | 0.759 ± 0.028 | 0.656 ± 0.044 | 0.612 ± 0.036 | 0.575 ± 0.044 | 0.546 ± 0.068 | 0.519 ± 0.055 | 0.527 ± 0.073
100 µM, coculture fibroblast: H6231 | 0.816 ± 0.016 | 0.869 ± 0.011 | 0.7511 ± 0.0046 | 0.578 ± 0.031 | 0.595 ± 0.015 | 0.5313 ± 0.0016 | 0.466 ± 0.0073 | 0.42 ± 0.018 | 0.402 ± 0.0046
100 µM, coculture fibroblast: HADF | 0.759 ± 0.023 | 0.678 ± 0.033 | 0.619 ± 0.049 | 0.593 ± 0.044 | 0.495 ± 0.026 | 0.47 ± 0.017 | 0.4398 ± 0.00083 | 0.4205 ± 0.00098 | 0.39 ± 0.0097
100 µM, coculture fibroblast: HCFa | 0.7768 ± 0.0026 | 0.667 ± 0.0073 | 0.603 ± 0.017 | 0.551 ± 0.01 | 0.4617 ± 0.0022 | 0.4318 ± 0.0025 | 0.396 ± 0.0077 | 0.384 ± 0.0066 | 0.361 ± 0.0061
100 µM, coculture fibroblast: HCPF | 0.8406 ± 0.0042 | 0.89 ± 0.023 | 0.78 ± 0.036 | 0.64797 ± 0.00042 | 0.642 ± 0.029 | 0.574 ± 0.026 | 0.514 ± 0.0066 | 0.4726 ± 0.0042 | 0.448 ± 0.022
100 µM, coculture fibroblast: HHSteC | 0.833 ± 0.022 | 0.756 ± 0.022 | 0.726 ± 0.048 | 0.683 ± 0.053 | 0.605 ± 0.049 | 0.577 ± 0.053 | 0.532 ± 0.054 | 0.506 ± 0.036 | 0.452 ± 0.038
100 µM, coculture fibroblast: HMF | 0.832 ± 0.012 | 0.846 ± 0.027 | 0.746 ± 0.026 | 0.6177 ± 0.0028 | 0.575 ± 0.021 | 0.526 ± 0.013 | 0.473 ± 0.008 | 0.4427 ± 0.0038 | 0.4189 ± 0.0028
100 µM, coculture fibroblast: HPFa | 0.951 ± 0.039 | 0.901 ± 0.066 | 0.832 ± 0.079 | 0.709 ± 0.11 | 0.627 ± 0.12 | 0.597 ± 0.13 | 0.55 ± 0.13 | 0.531 ± 0.13 | 0.518 ± 0.14
100 µM, coculture fibroblast: HUF | 0.92 ± 0.019 | 0.80255 ± 0.00071 | 0.661 ± 0.056 | 0.53 ± 0.089 | 0.451 ± 0.1 | 0.412 ± 0.11 | 0.357 ± 0.099 | 0.326 ± 0.12 | 0.31 ± 0.11
100 µM, coculture fibroblast: Hs5 | 0.857 ± 0.0027 | 0.866 ± 0.024 | 0.791 ± 0.019 | 0.7165 ± 0.0028 | 0.614 ± 0.011 | 0.559 ± 0.0046 | 0.521 ± 0.0058 | 0.493 ± 0.01 | 0.497 ± 0.019
100 µM, coculture fibroblast: Hs27A | 0.771 ± 0.022 | 0.697 ± 0.041 | 0.63 ± 0.04 | 0.626 ± 0.051 | 0.502 ± 0.045 | 0.487 ± 0.04 | 0.453 ± 0.047 | 0.441 ± 0.05 | 0.409 ± 0.078
100 µM, coculture fibroblast: Hs343T | 0.817 ± 0.014 | 0.879 ± 0.019 | 0.786 ± 0.042 | 0.643 ± 0.057 | 0.616 ± 0.043 | 0.532 ± 0.061 | 0.475 ± 0.078 | 0.435 ± 0.078 | 0.408 ± 0.074
100 µM, coculture fibroblast: WS1 | 0.865 ± 0.016 | 0.7391 ± 0.0034 | 0.62 ± 0.0095 | 0.512 ± 0.025 | 0.4407 ± 0.0032 | 0.3939 ± 0.0024 | 0.356 ± 0.0079 | 0.317 ± 0.0096 | 0.297 ± 0.015
